Here are results for one molecule from US20030158378A1 (Amgen, published 2003).

These are yes or no findings as the source states them, for the method shown. In cells and extracts the contact can be indirect. Sequences can lack the tags named with a protein.

The assay concerns the target TGFβ. The assay is described as follows: co-immunoprecipitation with anti-mCHL2 antiserum and protein A agarose, Western blot. A general note: In western blotting, separated proteins are transferred to a membrane and probed.

B1: FLAG-tagged murine CHL2 polypeptide (mCHL2-FLAG) (protein, not shown: small tags and cut ends)
chain: LSRSGKVCLFGEKIYTPGQSWHPYLEPQGTIYCVRCTCSENGHVNCYRLRCPPLHCSQPVMEPQQCCPRCVDPHVPSGLRVPLKSCQLNETTYQHGEIFSAQELFPARLSNQCVLCSCIEGHTYCGLMTCPEPSCPTTLPLPDSCCQTCKDRTTESSTEENLTQLQHGERHSQDPCSERRGPSTPAPTSLSSPLGFIPRHFQSVGMGSTTIKIILKEKHKKACTHNGKTYSHGEVWHPTVLSFGPMPCILCTCIDGYQDCHRVTCPTQYPCSQPKKVAGKCCKICPEDEAEDDHSEVISTRCPKVPGQFQVYTLASPSPDSLHRFVLEHEASDQVEMYIWKLVKGIYHLVQIKRVRKQDFQKEAQNFRLLTGTHEGYWTVFLAQTPELKVTASPDKVTKTL
Consider B1, for which the binding entry was “no binding (tested: mCHL2-FLAG protein was used at 600 ng/ml)”.
